From PubChem BioAssay AID2685 (National Center for Advancing Translational Sciences (NCATS), 2010)
Some of the results follow. Shown are side measurements of this screen, not its main read-out; they come without a call. The list favours compounds with an active or inconclusive main result. Words in brackets tell the shape of the fitted curve; partial curves, single points and poor fits give uncertain potencies.

Assay: qHTS Assay for Lipid Storage Modulators in Drosophila S3 Cells;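 for cell number change: cells counted by Cell Tracker Red CMTPX staining in the red channel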
Details: BODIPY lipid droplet fluorescence, 18-24 h; for cell number change: measured here: cell count max response, cells fed with added oleic acid
Summary of the method: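 Drosophila S3 cells loaded with oleic acid (400 uM, as added) and compounds at several concentrations; lipid droplets imaged by 488-nm laser-scanning cytometry, 500–530 nm intensity and object ratio to cell channel. Percent activity normalized to 20 uM Triacsin C.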

[1] = measured here: cell number channel AC50, cells fed with added oleic acid
[2] = measured here: lipid fluorescence (Fed channel) AC50, cells fed with added oleic acid

Structure (SMILES)	cell number change [%]	AC50 [1]	AC50 [2]
COc1ccc(Cl)cc1-c1nc(N)nc(NC2CCCCC2)n1	36.5	5.17 µM [rising, full curve, poor fit]	9.2 µM [rising, partial curve]
C=C(C)COc1ccc(-c2n[nH]c(C)c2-c2ccc(OC)cc2)c(O)c1	-47.8	14.6 µM [falling, partial curve]	20.6 µM [falling, single point]
COCC(=O)Nc1nc2n(n1)C(c1ccccc1Cl)CC(c1ccc(OC)cc1)N2 (centres undefined)	24.4		20.6 µM [rising, single point]
COCCNc1nnc(SCC(=O)c2ccc3c(c2)OCO3)s1	-4.33		
O=C(O)c1ccc2c(c1)N(Cc1cccc(F)c1)C(=O)CS2	23.5		0.00411 µM [rising, full curve, poor fit]
Nc1nc(NCc2ccco2)nc(NCCO)c1[N+](=O)[O-]	24.7		7.31 µM [rising, partial curve]
Cc1ccc(CCNC(=O)C2CCN(S(=O)(=O)c3ccc4c(c3)NC(=O)C(C)S4)CC2)cc1 (centres undefined)	7.63		29.1 µM [rising, single point]
CC(C)c1cc(=O)n2c(nc3ccccc32)[nH]1	-8.52		6.51 µM [falling, partial curve, poor fit]
O=C(CN1CCCCCCC1)Nc1cc(Cl)cc(Cl)c1	16.8		
CC(C)CC(NC(=O)/C(=C/c1ccco1)NC(=O)c1ccc(Br)o1)C(=O)O (centres undefined)	-29.3		36.6 µM [falling, partial curve, poor fit]
CN(C)S(=O)(=O)c1cccc(NC(=O)COC(=O)c2cccn2C)c1			6.51 µM [falling, single point]
Cc1cc(-c2nnnn2-c2ccc(F)cc2)no1			32.6 µM [rising, single point]
CCC(CC)C(=O)NCCc1cc2cc(C)c(C)cc2[nH]c1=O	29.9		
Cc1cc2oc(=O)cc(COC(=O)c3n[nH]c4ccccc34)c2cc1C	32.1	9.2 µM [rising, partial curve]	
CCc1ccc(C2=NNC(=Nc3c(C)n(C)n(-c4ccccc4)c3=O)SC2)cc1	-19.8		0.00411 µM [falling, full curve, poor fit]
O=C(NCc1cccnc1)Nc1ccc(Br)cc1Cl	29.7		29.1 µM [rising, single point]
O=C(NCCN1CCc2ccccc2C1)C1CCN(S(=O)(=O)N2CCCCC2)CC1	14.6		29.1 µM [rising, single point]
CCC(Sc1nc2c(c(=O)[nH]1)CCC2)C(=O)Nc1cccc(OC)c1 (centres undefined)	63.3		29.1 µM [rising, single point]
COCCOC(=O)C(C#N)c1nc2ccccc2nc1N1CCCC1 (centres undefined)	48.8	10.3 µM [rising, partial curve]	
COc1ccc(N2CCN(S(=O)(=O)c3cc(-c4cc(C)no4)ccc3C(C)C)CC2)cc1	0.298		16.4 µM [rising, single point]

Grouped by structure: those above with an aryl thioether with sulfur outside any ring (two)
Structure (SMILES)	cell number change [%]	AC50 [1]	AC50 [2]
COCCNc1nnc(SCC(=O)c2ccc3c(c2)OCO3)s1	-4.33		
CCC(Sc1nc2c(c(=O)[nH]1)CCC2)C(=O)Nc1cccc(OC)c1 (centres undefined)	63.3		29.1 µM [rising, single point]

Continued:

Structure (SMILES)	cell number change [%]	AC50 [1]	AC50 [2]
CCOc1cc(/C=N/NC(=O)CN2CCOCC2)ccc1OCc1ccc(Cl)cc1		0.184 µM [rising, full curve, poor fit]	
O=S(=O)(CS(=O)(=O)c1ccc(Cl)cc1)c1ccc(Cl)cc1	50.1	29.1 µM [rising, single point]	
CC(=O)c1cccc(NC(=O)/C(=C\c2ccco2)NC(=O)c2cccs2)c1	20.7	0.103 µM [rising, full curve, poor fit]	23.1 µM [rising, single point]
COc1ccc(NC(=O)Cn2c(=O)n(CC(=O)NCc3ccco3)c(=O)c3ccccc32)cc1	1.44		
COCCn1c(SCC(=O)c2ccccc2)nc2c(c1=O)SC(C)C2 (centres undefined)	71	1.84 µM [rising, full curve]	5.17 µM [rising, single point]
COc1ccc(NC(=O)CCNC(=O)Cn2ccc3ccccc3c2=O)cc1Cl	8.11		29.1 µM [falling, single point]
Nn1c(SC/C=C/c2ccccc2)nnc1-c1ccco1	-14.2		16.4 µM [rising, partial curve]
CC1(C)CC2CC(C)(CN2C(=O)COC(=O)c2ccccc2C(F)(F)F)C1 (centres undefined)	-14		4.11 µM [rising, single point]
COc1ccc(C2NCCc3sccc32)cc1 (centres undefined)			32.6 µM [rising, single point]
COc1ccc(NC2=CC(=O)CC(C)(C)C2)cc1OC	10.6		
CC(C)NCCOc1cccc(Br)c1	-91.8	32.6 µM [falling, partial curve]	6.51 µM [falling, single point]
CCOc1ccc(Cl)cc1CNc1nnnn1CC	14.1		
C=CCC(NCCCO)c1cccc(OC)c1OC (centres undefined)	-30		29.1 µM [falling, single point]
CCN(CC)CCNC(=O)CCCCn1c(=S)[nH]c2c([nH]c3ccc(OC)cc32)c1=O	-24.2		0.231 µM [falling, full curve]
Cc1ccc2cc(CN(C(=O)C3CCCO3)C3CCCCC3)c(=O)[nH]c2c1 (centres undefined)	-7.9		20.6 µM [rising, single point]
CCOc1ccc(C(=O)Nc2cccc(-c3cc4ccccc4oc3=O)c2)cc1[N+](=O)[O-]	4.52		8.2 µM [falling, partial curve]
CC(C)OC(=O)C1C(=O)CC(C)(O)C(C(=O)OC(C)C)C1c1ccc(F)cc1 (centres undefined)	-36.2	18.4 µM [falling, partial curve]	23.1 µM [falling, partial curve]
CCOP(=O)(c1ccc(N(C)C)cc1)C(O)c1c(Cl)cccc1Cl (centres undefined)	-79.9		20.6 µM [falling, single point]
CCn1c2ccccc2c2nc3cc(S(=O)(=O)N4CCOCC4)ccc3nc21	-10.2		16.4 µM [falling, partial curve, poor fit]
